The record followed here is patent publication US20160008471A1, “TRANSDERMAL FORMULATIONS” (priority 2013, published 2016).

For data set [1] the following is noted: horse.
For data set [2] the following is noted: rabbit.
For data set [3] the following is noted: male, bovine, pH 7.4.

Molecules are shown by their SMILES. Structures can show the parent of a compound that is named as a salt. Where two headings read alike, the source gives them in different places.

As for `O=C(O)COCCN1CCN(C(c2ccccc2)c2ccc(Cl)cc2)CC1` (stereo not drawn) [Cetirizine, Cetirizine 2HCl], the results for the “lag T” value in data set [1], in data set [2] and in data set [3] were 8.83 h, 10.3 h and 2.61 h, respectively. Also, the values for the APC in data set [1] (72 h), in data set [2] (72 h) and in data set [3] (72 h) were 4.78 cm/s × 10^−8, 4.99 cm/s × 10^−8 and 85.8 cm/s × 10^−8, respectively. The Flux in data set [1] (72 h) was found to be 4.41 μg/cm^2/hr; in data set [2] (72 h), 4.61 μg/cm^2/hr; in data set [3] (58 h) it was 77.9±14.5 μg/cm^2/hr; in data set [3] (72 h) it was 77.9 μg/cm^2/hr.

On to `CN(C)CCOC(c1ccccc1)c1ccccc1` [Diphenhydramine, Diphenhydramine HCl], for which the Flux was 25.3±1.9 μg/cm^2/hr in data set [1] (58 h); 25.3 μg/cm^2/hr in data set [1] (72 h); 41.47±10.18 μg/cm^2/hr in data set [2] (58 h); 41.5 μg/cm^2/hr in data set [2] (72 h); 95.1±33.1 μg/cm^2/hr in data set [3] (58 h); 95.1 μg/cm^2/hr in data set [3] (72 h). Also, the figures for the APC in data set [1] (72 h), in data set [2] (72 h) and in data set [3] (72 h) were 28.5 cm/s × 10^−8, 46.3 cm/s × 10^−8 and 61.9 cm/s × 10^−8, respectively. For the same compound, the “lag T” value in data set [2] is 13.6 h; in data set [3], 0.72 h.
